In all, about 31,000 sequences went through this assay and about 1,400 (4.5%) were called active.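 How the source made its calls: active means median seed-adjusted z-score above 1 or below -1; inactive means the rest.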 Some of the results follow.

The experiment can be described thus: Novel Modifiers of Survival Motor Neuron (SMN) Protein: Gene Identification via Genome-wide siRNA Screen.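 Further: luminescence tracks full-length SMN protein made from the SMN2 reporter.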 The settings on record: HEK293T SMN2-luciferase reporter, siRNA knockdown, 72 h; actives lie on both sides. The procedure, abridged:
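Luciferase signal, proportional to full-length SMN made from an SMN2 cDNA reporter in stable HEK293T cells, was read 72 h after siRNA reverse transfection. Values were expressed as MAD scores after non-targeting-control normalization and log10 conversion; seed analysis flagged off-targets.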
Take AGACCUCGGUUAAAAACAATT against RAB42: the median seed-adjusted z-score is inactive: 0.241.

In the case of GGAUGAUGGAGAAGACUCATT against CPSF2, the median seed-adjusted z-score is inactive: 0.0263.

Take CUACUGAAGUAUACGUAAATT against CD47: the median seed-adjusted z-score was inactive: 0.0241.

As to GCAUCGUUGGGAAACGAAATT against INADL, the median seed-adjusted z-score is inactive: 0.53.

For the sequence CCUAUAAGAUGUGCACGGATT against HMG20B, the median seed-adjusted z-score was inactive: 0.231.

In the case of AUUUCUCUGUGAAGACAAATT against FCGR3A, the median seed-adjusted z-score was inactive: 0.0786.

Regarding GGGUCAAUCAGACUCUUAATT against PLS1, the median seed-adjusted z-score was inactive: -0.0715.

For the sequence CUGCUGCGCCUGUACUUCATT against CD151, the median seed-adjusted z-score was inactive: -0.0305.

GGGCACCACCAUUAAGAAATT against SLC7A7: the median seed-adjusted z-score is inactive: 0.209.

On to GGCUAUUGAUUGUCCACAUTT against L2HGDH, for which the median seed-adjusted z-score is inactive: -0.346.

Turning to ACAUGAUCAUCAGUGUGAATT against FABP4, the median seed-adjusted z-score was inactive: 0.227.

In the case of ACCAUUUAAUGUUCUCUAUTT against PA2G4, the median seed-adjusted z-score is inactive: -0.803.

Regarding CACUCUCUACAAUCCGUAATT against EGR2, the median seed-adjusted z-score was inactive: -0.37.

With GCUCUAACCUCAAUACCCATT against ZSCAN20, the median seed-adjusted z-score was inactive: -0.099.

Turning to GCUGUCACUUAAUAAUCAATT against KLK11, the median seed-adjusted z-score is inactive: 0.0411.

Regarding GAUAAUGGAAGGUGAAUUUTT against PMS2L3, the median seed-adjusted z-score is inactive: 0.175.

GGAUGUUCACAACCGAAUUTT against CTNNB1: the median seed-adjusted z-score is inactive: 0.0802.

Take GAGCGUGACUGGGUUCUAATT against DDX5: the median seed-adjusted z-score was inactive: 0.891.

For the sequence GGCUCCCUCUUUGUCCUUATT against ZDHHC19, the median seed-adjusted z-score was inactive: 0.0354.

On to CUCCUGGAGUUUUCUCUAATT against ABCG5, for which the median seed-adjusted z-score was inactive: 0.739.

Turning to GGUUUAGAGAGAUCGUAAATT against EMR3, the median seed-adjusted z-score was inactive: 0.169.

Turning to GGGAAUAGCUGGGCUGAGATT against AKR7A2, the median seed-adjusted z-score was inactive: 0.192.

In the case of GCAUAGUAGUACUAAUUAUTT against ZNF148, the median seed-adjusted z-score was inactive: 0.307.

Turning to CCAUGUUGCUCCCUAUUUUTT against TSHB, the median seed-adjusted z-score was inactive: -0.247.

In the case of GACUGUUCCUAUACUAGUATT against DBT, the median seed-adjusted z-score is inactive: -0.976.

For GGAUGGCAGGGAUUCCGAATT against ZNF213, the median seed-adjusted z-score was active: 1.37.

Consider GUAUUGUCAUAUCUUGAUATT against MTA3, for which the median seed-adjusted z-score was inactive: 0.342.

GGUUAUACAUCAUUGGGUATT against PHCA: the median seed-adjusted z-score is inactive: 0.0568.

Consider GAAGCACAUUGUUUCCAGATT against SERGEF, for which the median seed-adjusted z-score is inactive: -0.308.

With GCCUGAGAAAUUCACGAAATT against OGFOD1, the median seed-adjusted z-score is inactive: 0.442.

Regarding CCACAUCUGUGGAUAUCAUTT against CDH17, the median seed-adjusted z-score was inactive: -0.167.

As for UGGACAACUUUGUACCUAATT against EBP, the median seed-adjusted z-score was inactive: 0.017.

In the case of GGAGAUCUAUACUUCGCAATT against CHL1, the median seed-adjusted z-score is inactive: 0.1.

Consider CUGUGGAAAUUUUAAGGGATT against ACSM3, for which the median seed-adjusted z-score is inactive: 0.281.

Turning to GAAGAUCUAUGGUUGACUATT against GLUD1, the median seed-adjusted z-score is inactive: 0.156.

Regarding GAGGCACAACAGAAGUUCATT against HAT1, the median seed-adjusted z-score was inactive: -0.622.

For the sequence GGAGGAAUGUUACACGGCUTT against ITGB1, the median seed-adjusted z-score is inactive: 0.

Regarding CAGACAAGGUUCAACCGAATT against ORC2L, the median seed-adjusted z-score was inactive: -0.101.

With GAAAUUUGCGUGUGGAGUATT against TP53, the median seed-adjusted z-score is inactive: 0.214.

CCAUGACUGUUGAGGUAGATT against AKAP12: the median seed-adjusted z-score is inactive: -0.104.

AGGAGACACUGCGACCGUATT against KCNQ4: the median seed-adjusted z-score was inactive: 0.583.

Consider CACCUGAACUACCAAAAGATT against KLF11, for which the median seed-adjusted z-score is inactive: 0.158.

For CUACCGAUUUGGGACCCAATT against SLC5A6, the median seed-adjusted z-score is inactive: 0.994.

For GUGAUGACAUGGAUCUAGATT against ZSCAN29, the median seed-adjusted z-score was inactive: 0.193.

On to GUCUUGUACAAGGAAGUAATT against ZNF577, for which the median seed-adjusted z-score is inactive: -0.756.

Turning to GGAAGAGAACUGGAAGUUUTT against STARD3, the median seed-adjusted z-score is inactive: -0.314.

For the sequence GGAAAAGUAUGAACUGAAATT against TREM1, the median seed-adjusted z-score was inactive: 0.

Take GGCUCCGUGCUUGUCCUUATT against SPR: the median seed-adjusted z-score is inactive: 0.0329.

On to GAAUAGUCUCUAUUCAACATT against ZNF292, for which the median seed-adjusted z-score was inactive: -0.481.

GAAGCUAGGUAUAACCGGATT against PTAR1: the median seed-adjusted z-score was inactive: -0.507.

Consider GUAGGUUGCUUAAAAGGGATT against APOC3, for which the median seed-adjusted z-score was inactive: 0.185.

In the case of CAACCCGAACUUUCCAGAATT against GUCA2A, the median seed-adjusted z-score was inactive: 0.121.

As to GCCGAGGAAUGGUUCUUCATT against KRT14, the median seed-adjusted z-score was inactive: -0.127.

For the sequence AGGGAAUUGUGGAGCAUGATT against GNA12, the median seed-adjusted z-score is inactive: 0.598.

With GGACCGGGACUAUCAAUGATT against AEBP1, the median seed-adjusted z-score is inactive: -0.0536.

Turning to GCUUUCAACGGGAUUAUUATT against HNRNPCL1, the median seed-adjusted z-score is inactive: 0.

With AGAUCUCCGUGCCUCCUGUTT against DPYSL4, the median seed-adjusted z-score is inactive: 0.71.

In the case of CAAGCUGACAUAUCAAGUATT against MUTYH, the median seed-adjusted z-score is inactive: 0.024.

Regarding GACUGAUCCCUCUACUUCATT against SNTG1, the median seed-adjusted z-score is inactive: 0.167.

Turning to GCAAAUCAACAGUACGUUUTT against CARS2, the median seed-adjusted z-score was inactive: 0.

With CAAGAUUCUGUGGUAAAUATT against ZNF45, the median seed-adjusted z-score is inactive: 0.172.

Turning to GAAGAUUGGUUACGGCAUATT against ATP11B, the median seed-adjusted z-score is inactive: 0.0036.

Turning to CUCUAUAUUUUCAACUGUATT against KCNV1, the median seed-adjusted z-score is inactive: 0.109.

On to GCUGUGGAUGGAUCGCAUATT against BTN3A1, for which the median seed-adjusted z-score is inactive: -0.198.

Take CUAUGGACUUCAUCGCUUUTT against EEF1E1: the median seed-adjusted z-score was active: -1.45.

Regarding GGAGGACCUCUGUACCUUUTT against ANKS1A, the median seed-adjusted z-score is inactive: -0.0165.

For the sequence GGAUCACUGUCCCAACAGATT against NUP214, the median seed-adjusted z-score is inactive: 0.074.

Regarding GGCUGUAUGAGCACCGUUATT against TGIF1, the median seed-adjusted z-score is inactive: 0.303.

Consider CCCACUUAAUGAUAUGAUATT against OSBPL8, for which the median seed-adjusted z-score was inactive: 0.231.

The values above are taken from PubChem BioAssay AID1347426 (Functional Genomics Laboratory (NCATS/FGL), 2020).
